The text below walks through data of paper PMC5511349.

The chains behind the UniProt entries cited, without tags or fusion partners.
UniProt P17844: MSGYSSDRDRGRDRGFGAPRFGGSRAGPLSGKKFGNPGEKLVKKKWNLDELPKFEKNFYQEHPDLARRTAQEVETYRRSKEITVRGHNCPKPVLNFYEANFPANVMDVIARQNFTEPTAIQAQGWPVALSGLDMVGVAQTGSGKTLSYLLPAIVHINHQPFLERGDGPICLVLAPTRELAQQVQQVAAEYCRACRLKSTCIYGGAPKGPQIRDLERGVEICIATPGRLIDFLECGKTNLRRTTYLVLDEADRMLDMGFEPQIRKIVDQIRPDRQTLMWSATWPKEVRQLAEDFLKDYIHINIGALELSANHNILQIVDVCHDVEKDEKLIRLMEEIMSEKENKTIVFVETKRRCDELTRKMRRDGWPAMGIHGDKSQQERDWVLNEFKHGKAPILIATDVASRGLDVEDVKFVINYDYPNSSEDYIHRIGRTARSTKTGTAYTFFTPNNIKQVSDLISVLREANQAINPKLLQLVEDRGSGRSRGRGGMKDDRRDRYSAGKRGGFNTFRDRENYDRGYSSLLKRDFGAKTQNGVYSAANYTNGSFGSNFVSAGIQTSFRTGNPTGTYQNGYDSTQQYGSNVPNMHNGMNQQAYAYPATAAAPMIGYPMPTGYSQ
UniProt Q92841: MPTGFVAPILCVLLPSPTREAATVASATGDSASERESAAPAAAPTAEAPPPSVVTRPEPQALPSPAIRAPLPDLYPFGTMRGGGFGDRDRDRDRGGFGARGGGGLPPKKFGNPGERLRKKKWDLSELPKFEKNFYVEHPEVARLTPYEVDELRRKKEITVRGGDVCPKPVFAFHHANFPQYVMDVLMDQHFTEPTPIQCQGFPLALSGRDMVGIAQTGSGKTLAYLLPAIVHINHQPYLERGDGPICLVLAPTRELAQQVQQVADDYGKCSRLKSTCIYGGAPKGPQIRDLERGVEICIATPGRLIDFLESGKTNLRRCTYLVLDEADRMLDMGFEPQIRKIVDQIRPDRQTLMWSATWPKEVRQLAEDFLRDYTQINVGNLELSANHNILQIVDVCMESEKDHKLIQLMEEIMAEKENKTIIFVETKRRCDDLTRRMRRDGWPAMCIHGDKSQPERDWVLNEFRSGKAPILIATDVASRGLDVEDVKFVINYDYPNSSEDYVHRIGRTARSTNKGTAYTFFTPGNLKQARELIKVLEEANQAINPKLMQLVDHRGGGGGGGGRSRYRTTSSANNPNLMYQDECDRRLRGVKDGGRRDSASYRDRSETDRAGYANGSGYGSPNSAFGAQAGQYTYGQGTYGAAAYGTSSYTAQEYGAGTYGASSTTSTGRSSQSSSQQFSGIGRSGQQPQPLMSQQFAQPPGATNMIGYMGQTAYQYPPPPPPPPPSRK

Results are given in words; binding and its absence hold for the method and conditions named. Binding seen in cells or lysates may run through a third protein. Some binding calls cover weakened binding; strength is not graded here.

The target in the experiment is DDX5 (human (endogenous in K562 or 293T cells)) (UniProt P17844). In words: co-IP; cells crosslinked with 1% formaldehyde 10 min, nuclei lysed and sonicated; immunoprecipitated with anti-DDX5 (Bethyl A300-523A), blotted for DDX17 (Bethyl A300-509A).

As for DDX17 (from UniProt Q92841 1-729), the binding result is recorded as “binds”.
